Data source: PubChem BioAssay AID504791 (Drosophila RNAi Screening Center, 2011)
Aim: 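Genes whose knock-down strengthens or weakens small-RNA reporter silencing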 (primary screen). Cells: Drosophila S2-derived reporter cells. Knock-down reagent: long dsRNA against Drosophila genes, about 150-250 ng dsRNA per well (siRNA assay); about 80-120 ng (miRNA assay). Timing: about 5 days (siRNA assay); about 4 days (miRNA assay). Treatment: copper sulfate induction of reporters: 25 µM (siRNA assay); 200 mM stated (miRNA assay), 1-2 days before reading. Measurement: 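Per-well ratio of Renilla over firefly light, expressed relative to that plate's average ratio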. Units: stable assay Renilla, run 1 in luminescence; stable assay firefly, run 1 in luminescence. Hit rule: 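First-pass picks had plate-scaled ratios over 1.5 for the siRNA assay, over 1.6 for the miRNA assay, or under 0.6; two distinct dsRNAs had to score alike on retest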.
The screen tested about 23,000 reagents; below is a random part of those with a known target gene and a result. Of all reagents, 199 (0.86%) got an active call. 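Plate-scaled ratios behind the calls are not deposited; printed light signals are raw; many rows marked increased or decreased are still called inactive.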 Unmarked entries are inactive. Not stated in the record: the direction of the score.

Silencing of tun [DRSC05592] gave: stable assay Renilla, run 1 = 6731; stable assay firefly, run 1 = 5.36e5.
For tun [DRSC07127], the entry reads stable assay Renilla, run 1 = 9547; stable assay firefly, run 1 = 3.17e5.
CG6304 [DRSC02948] scored stable assay Renilla, run 1 = 12134; stable assay firefly, run 1 = 2.61e6.
With knock-down of CG4653 [DRSC19909] the results were stable assay Renilla, run 1 = 4363; stable assay firefly, run 1 = 5.01e5.
CG4653 [DRSC22857] showed stable assay Renilla, run 1 = 4359; stable assay firefly, run 1 = 3.82e5.
CASK [DRSC14588] gave stable assay Renilla, run 1 = 2936; stable assay firefly, run 1 = 3.13e5.
With knock-down of CASK [DRSC16597], the record shows stable assay Renilla, run 1 = 8546; stable assay firefly, run 1 = 5.50e5.
After knock-down of CASK [DRSC16598], the screen gave stable assay Renilla, run 1 = 7682; stable assay firefly, run 1 = 3.82e5.
CASK [DRSC21917] showed stable assay Renilla, run 1 = 9922; stable assay firefly, run 1 = 6.17e5.
Against egh [DRSC18771], the values are stable assay Renilla, run 1 = 9339; stable assay firefly, run 1 = 4.79e5.
After knock-down of CG8607 [DRSC11012], the screen gave stable assay Renilla, run 1 = 6830; stable assay firefly, run 1 = 3.93e5.
Silencing of Hip14 [DRSC10570] gave: stable assay Renilla, run 1 = 11317; stable assay firefly, run 1 = 4.97e5.
Depletion of Rcc1 [DRSC09684] came out at: stable assay Renilla, run 1 = 10010; stable assay firefly, run 1 = 4.06e5.
Silencing of CG6959 [DRSC16151] came out at: stable assay Renilla, run 1 = 6398; stable assay firefly, run 1 = 3.80e5.
Silencing of wuc [DRSC06152] gave: stable assay Renilla, run 1 = 5590; stable assay firefly, run 1 = 2.49e5.
Knock-down of PGRP-SD [DRSC10856] gave: stable assay Renilla, run 1 = 6162; stable assay firefly, run 1 = 2.88e5.
After knock-down of mus301 [DRSC10939], the screen gave stable assay Renilla, run 1 = 5950; stable assay firefly, run 1 = 3.83e5.
CG10958 [DRSC17768] gave stable assay Renilla, run 1 = 7968; stable assay firefly, run 1 = 5.48e5.
After knock-down of CG6425 [DRSC16038], the record shows stable assay Renilla, run 1 = 8275; stable assay firefly, run 1 = 4.87e5.
Knock-down of CR18275 [DRSC18151] resulted in: stable siRNA reporter change reporter ratio lowered past the hit cutoff; stable assay Renilla, run 1 = 5718; stable assay firefly, run 1 = 7.18e5.
CG13449 [DRSC09996] scored stable assay Renilla, run 1 = 7300; stable assay firefly, run 1 = 4.38e5.
After knock-down of Ser6 [DRSC20574], the record shows stable assay Renilla, run 1 = 5275; stable assay firefly, run 1 = 2.79e5.
Against CG6511 [DRSC10656] the deposit lists stable assay Renilla, run 1 = 6315; stable assay firefly, run 1 = 3.63e5.
CG4168 [DRSC01446] scored stable assay Renilla, run 1 = 5283; stable assay firefly, run 1 = 3.82e5.
CG4168 [DRSC01447] scored stable assay Renilla, run 1 = 5654; stable assay firefly, run 1 = 4.05e5.
After knock-down of CG4168 [DRSC01933], the screen gave stable assay Renilla, run 1 = 69869; stable assay firefly, run 1 = 1.36e6.
After knock-down of CG4168 [DRSC21319] the results were stable assay Renilla, run 1 = 8739; stable assay firefly, run 1 = 5.61e5.
For CG4168 [DRSC22789], the entry reads stable assay Renilla, run 1 = 4191; stable assay firefly, run 1 = 4.30e5.

An excerpt from above, limited to “stable assay Renilla, run 1”.
CASK [DRSC16597] = 8546
CASK [DRSC16598] = 7682
CASK [DRSC21917] = 9922
